Reference: PubChem BioAssay AID720505 (Drosophila RNAi Screening Center, 2013)
The screen tested about 20,000 reagents; shown is an unselected part of those that have a named target and a result. In the full data, about 2,100 (10%) were called active. 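Raw plate signals without normalisation; calls rest on control-based scores that were not deposited; replicate 2 separates called from uncalled poorly.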 A number with no mark means an inactive call. Reagents against one gene are numbered here. A plus sign joins genes that one reagent is predicted to hit. The record does not give: the amount of reagent, the time to read-out.

Screen: 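Genes needed for store-operated calcium entry in fly cells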 (primary screen)
Cells: Drosophila S2R+ cells
Knock-down reagent: long dsRNA against Drosophila genes
Treatment: thapsigargin (2 µM) in calcium-free buffer to empty internal stores, then 2 mM calcium added back
Measured: 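Stores emptied by 2 µM thapsigargin without calcium, then 2 mM calcium re-added; fluo-4 fluorescence followed by FLIPR in 384-well plates, per-well averaged endpoint, raw; two screen passes, some wells retested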
Scale: calcium signal and retest calcium signal: higher = more calcium entry after store depletion
Call rule: 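Knock-downs counted as hits when calcium entry dropped relative to STIM1 positive and Rho1 negative controls present on each plate; roughly 1500 genes called, with reductions of differing size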
Meaning of the calls: active = called as lowering calcium entry; inactive = not called

The first 5 records as a preview:
no.	Gene	reagent no.	calcium signal, replicate 1	calcium signal, replicate 2	retest calcium signal, replicate 1	retest calcium signal, replicate 2
1	okr (GeneID 33507)	1	144	241		
2	CG6614 (GeneID 34583)	1	99.7	123		
3	CG9003 (GeneID 36244)	1	114	150		
4	Phk-3 (GeneID 37997)	1	66.8	132		
5	CG32487 (GeneID 38358)	1	86.5	111		

The listing, from the start:
no.	Gene	reagent no.	calcium signal, replicate 1	calcium signal, replicate 2	retest calcium signal, replicate 1	retest calcium signal, replicate 2
1	okr (GeneID 33507)	1	144	241		
2	CG6614 (GeneID 34583)	1	99.7	123		
3	CG9003 (GeneID 36244)	1	114	150		
4	Phk-3 (GeneID 37997)	1	66.8	132		
5	CG32487 (GeneID 38358)	1	86.5	111		
6	CG8299 (GeneID 36751)	1	118	114		
7	TyrRS-m (GeneID 37965)	1	163	75.3		
8	CG5281 (GeneID 41375)	1	166	138		
9	Tip60 (GeneID 31362)	1	131	144		
10	CG5174 (GeneID 37117)	1	117	88.9		
11	CG8031 (GeneID 41601)	1	108	112		
12	CG3328 (GeneID 37871)	1	171	97.9		
13	ich (GeneID 41069)	1	90.1	177		
14	CG8321 (GeneID 36287)	1	234	132		
15	Nemp (GeneID 32639)	1	89	113		
16	Cp18 (GeneID 38998)	1	105	67.3		
17	CG7276 (GeneID 39668)	1	70.8	111		
18	SAK (GeneID 40384)	1	102	191		
19	SAK (GeneID 40384)	2	115	145		
20	CG12917 (GeneID 36065)	1	84.2	130		
21	Smox (GeneID 31738)	1	164	133		
22	ND2 (retired record) (GeneID 192474)	1	68.2 (active)	210	105	94
23	St2 (GeneID 41098)	1	113	127		
24	St2 (GeneID 41098)	2	115	202		
25	Grl43a (GeneID 35705)	1	129	164		
26	CG6565 (GeneID 34749)	1	97.3	137		
27	CG14609 (GeneID 40864)	1	94.5	144		
28	Paris (GeneID 33657)	1	102	168		
29	CG34266 (GeneID 5740465)	1	91.7	77.3		
30	rols (GeneID 39368)	1	67.8 (active)	101		
31	rols (GeneID 39368)	2	94.9	96.2		
32	rols (GeneID 39368)	3	104	85.7		
33	beta'COP (GeneID 45757)	1	86.2	87.5		
34	IleRS (GeneID 45785)	1	61.4 (active)	98.2		
35	CG14483 (GeneID 36995)	1	116	118		
36	Ctf4 (GeneID 36551)	1	115	169		
37	tefu (GeneID 41839)	1	106	133		
38	DEF8 (GeneID 39381)	1	101	79.4		
39	Sr-CI (GeneID 33621)	1	82.7	159		
40	Muc18B (GeneID 32913)	1	73.4 (active)	171		
41	Muc18B (GeneID 32913)	2	184	85.1		
42	Cdk5 (GeneID 36727)	1	110	112		
43	CG5171 (GeneID 34016)	1	88	233		
44	CG1418 (GeneID 36035)	1	87.8	128		
45	chrb (GeneID 39284)	1	129	79.2	165	163
46	CG32544 (GeneID 318082)	1	94.7	109		
47	CG17806 (GeneID 42142)	1	139	238		
48	nopo (GeneID 37083)	1	159	92.4		
49	UQCR-C1 (GeneID 41800)	1	80.6	74.3		
50	Septin2 (GeneID 42438)	1	224	205		
51	CG34445 (GeneID 5740761)	1	81.6	131		
52	Oda (GeneID 36307)	1	125	147		
53	Gnf1 (GeneID 40607)	1	77.2 (active)	72.3		
54	Cubn (GeneID 326235)	1	133	109		
55	CG16824 (GeneID 5740834)	1	76.4 (active)	89.4		
56	CG8858 (GeneID 36319)	1	85.9	141		
57	CG17028 (GeneID 39741)	1	75	128		
58	Polr1F (GeneID 33963)	1	90.3	156		
59	CG8008 (GeneID 35935)	1	130	89.2		
60	bdwf (GeneID 42057)	1	182	310		
61	fuss (GeneID 43835)	1	114	129		
62	fuss (GeneID 43835)	2	161	75.7		
63	CG3927 (GeneID 37576)	1	66.1 (active)	115		
64	CG3927 (GeneID 37576)	2	68.5	83.5		
65	Jhbp13 (GeneID 34729)	1	114	90		
66	Fadd (GeneID 42594)	1	132	174		
67	CG30429 (GeneID 246609)	1	110	94.2		
68	Ser12 (GeneID 33406)	1	103	153		
69	l(3)80Fg (GeneID 3354941)	1	95.6	85.4		
70	l(3)80Fg (GeneID 3354941)	2	90.1	208		
71	CG15923 (GeneID 42443)	1	146	278		
72	CG3309 (GeneID 31450)	1	147	90		
73	CG30031 + deltaTry + gammaTry	1	85.8	176		
74	Sur-8 (GeneID 42093)	1	147	175		
75	vret (GeneID 42695)	1	165	227		
76	CG11158 (GeneID 32327)	1	75.3 (active)	106		
77	Dus2 (GeneID 32377)	1	135	83.8		
78	BomT2 (GeneID 50208)	1	240	132		
79	eIF1 (GeneID 38398)	1	81.7	118		
80	tinc (GeneID 42148)	1	123	120		
81	tinc (GeneID 42148)	2	104	125		
82	tinc (GeneID 42148)	3	148	78		
83	tinc (GeneID 42148)	4	118	75.7		
